From the kinase profiling compilation of Christmann-Franck et al. (2016) come the findings set out here.

Protein sequences, listed by entry. Tags and fused reporters are not part of them. Lines headed by an entry give the natural chain unless they say otherwise; changes in a name come on top.
UniProt O00141: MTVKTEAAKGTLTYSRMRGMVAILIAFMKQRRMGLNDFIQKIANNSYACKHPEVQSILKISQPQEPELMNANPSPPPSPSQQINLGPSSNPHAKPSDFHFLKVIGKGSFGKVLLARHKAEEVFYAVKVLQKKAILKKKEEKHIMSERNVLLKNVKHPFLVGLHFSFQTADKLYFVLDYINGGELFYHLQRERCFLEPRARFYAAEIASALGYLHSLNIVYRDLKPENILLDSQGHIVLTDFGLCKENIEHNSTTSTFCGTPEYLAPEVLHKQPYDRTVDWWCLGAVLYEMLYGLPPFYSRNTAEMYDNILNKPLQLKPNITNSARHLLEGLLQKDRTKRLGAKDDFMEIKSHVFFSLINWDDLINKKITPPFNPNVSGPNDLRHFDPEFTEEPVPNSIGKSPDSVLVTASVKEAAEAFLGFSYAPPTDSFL

The assay addresses SGK1 (human) (UniProt O00141). As to the kind of experiment: Flashplate.

Compound `CSc1ccc(-c2nc(-c3ccc(F)cc3)c(-c3ccncc3)[nH]2)cc1` gave a Ki greater than 10 µM.

Broadly, the Ki is a dissociation constant, usually derived from enzyme kinetics or from competition with a known ligand.
